PubChem BioAssay AID1224828, NIAID – 2016
The whole screen tested about 17,000 reagents; below is an unselected part. In the full data, 762 (4.5%) are marked active. 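Active calls include both raised and lowered p65 entry, mostly lowered; wells with fewer than 50 cells lack a z-score.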 Raw values are not corrected between plates.

- Purpose: 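Find genes required for NF-kappaB p65 moving into the nucleus after LPS in mouse macrophages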 (primary screen)
- System: mouse RAW264.7 G9 macrophage reporter cells (GFP-p65, Tnf promoter-mCherry)
- Reagents: siRNA pool against mouse genes, 100 nM
- Time to read-out: 2 days siRNA transfection, then 40 min LPS before fixation
- Conditions: LPS (Salmonella minnesota R595) at 10 ng/ml
- Measured: 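Imaged p65 nuclear translocation ratio, normalised to the plate median, converted to robust z-scores and averaged across two replicates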
- Direction: p65 translocation robust z-score: higher = more nuclear NF-kappaB p65 after LPS than the plate median; nuclear/cytoplasmic p65 ratio: higher = more nuclear NF-kappaB p65
- Hit rule: 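Active if robust z is above 3.3 (negative regulators) or below -1.56, the Tlr4 control median (positive regulators); activity score 50 or more; control wells not called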
- Meaning of the calls: active = hit (p65 shift raised or lowered); inactive = no clear change

The opening 3 entries, ahead of the listing:
| gene | PubChem SID | p65 translocation robust z-score | nuclear/cytoplasmic p65 ratio, rep 1 | nuclear/cytoplasmic p65 ratio, rep 2 | low cell count flag | Outcome |
| --- | --- | --- | --- | --- | --- | --- |
| Il22ra1 | SID315478834 | 0.44 | 1.55 | 1.43 | enough cells to score | inactive |
| Irx3 | SID315467499 | -2.28 | 1.24 | 1.11 | enough cells to score | active |
| 5730596B20Rik | SID315475481 | -2 | 1.17 | 1.2 | enough cells to score | active |

Main list, from the first entry:
| gene | PubChem SID | p65 translocation robust z-score | nuclear/cytoplasmic p65 ratio, rep 1 | nuclear/cytoplasmic p65 ratio, rep 2 | low cell count flag | Outcome |
| --- | --- | --- | --- | --- | --- | --- |
| Il22ra1 | SID315478834 | 0.44 | 1.55 | 1.43 | enough cells to score | inactive |
| Irx3 | SID315467499 | -2.28 | 1.24 | 1.11 | enough cells to score | active |
| 5730596B20Rik | SID315475481 | -2 | 1.17 | 1.2 | enough cells to score | active |
| Ccdc121rt1 | SID315481898 | 0.77 | 1.54 | 1.64 | enough cells to score | inactive |
| Creb3 | SID315466110 | -0.38 | 1.59 | 1.31 | enough cells to score | inactive |
| Tex46 | SID315473151 | – | 1.37 | 1.37 | fewer than 50 cells per well; well left out of scoring | inactive |
| Gpr83 | SID315466902 | – | 1.39 | 1.51 | fewer than 50 cells per well; well left out of scoring | inactive |
| 6030498E09Rik | SID315475518 | -1.3 | 1.14 | 1.35 | enough cells to score | inactive |
| Smug1 | SID315474296 | – | 1.17 | 1.07 | fewer than 50 cells per well; well left out of scoring | inactive |
| Gan | SID315477586 | 1.31 | 1.58 | 1.57 | enough cells to score | inactive |
| Mtmr1 | SID315471049 | -0.43 | 1.4 | 1.28 | enough cells to score | inactive |
| Or5p59 | SID315480380 | 0.9 | 1.52 | 1.41 | enough cells to score | inactive |
| Frmd5 | SID315478639 | – | 1.11 | 1.45 | fewer than 50 cells per well; well left out of scoring | inactive |
| Homer3 | SID315470436 | -1.18 | 1.49 | 1.35 | enough cells to score | inactive |
| Rbm41 | SID315479325 | -0.2 | 1.57 | 1.49 | enough cells to score | inactive |
| Hbegf | SID315467175 | -1.08 | 1.35 | 1.22 | enough cells to score | inactive |
| Arsj | SID315480959 | -0.2 | 1.29 | 1.63 | enough cells to score | inactive |
| Apoh | SID315465473 | -0.42 | 1.55 | 1.56 | enough cells to score | inactive |
| Phax | SID315471638 | -2 | 1.12 | 1.06 | enough cells to score | active |
| Akap1 | SID315465369 | -0.96 | 1.32 | 1.26 | enough cells to score | inactive |
| Rpl21 | SID315469011 | -0.56 | 1.27 | 1.22 | enough cells to score | inactive |
| A130004G07Rik (retired record) | SID315481369 | 1.43 | 1.59 | 1.7 | enough cells to score | inactive |
| Myom1 | SID315468085 | -0.05 | 1.73 | 1.62 | enough cells to score | inactive |
| Abcc12 | SID315479767 | 0.44 | 1.81 | 1.6 | enough cells to score | inactive |
